Reference: article PMC7863940
Results are given in words; binding and its absence hold for the method and conditions named. In cells and extracts the contact can be indirect. Binding can be weak; no strength is given. Where a sequence is shown, tags or fusion partners need not be part of it.

Molecular target: T1, glucose transporter-4 (Glut4) (mouse (endogenous in 3T3L1)) (UniProt P14142)
T1 sequence: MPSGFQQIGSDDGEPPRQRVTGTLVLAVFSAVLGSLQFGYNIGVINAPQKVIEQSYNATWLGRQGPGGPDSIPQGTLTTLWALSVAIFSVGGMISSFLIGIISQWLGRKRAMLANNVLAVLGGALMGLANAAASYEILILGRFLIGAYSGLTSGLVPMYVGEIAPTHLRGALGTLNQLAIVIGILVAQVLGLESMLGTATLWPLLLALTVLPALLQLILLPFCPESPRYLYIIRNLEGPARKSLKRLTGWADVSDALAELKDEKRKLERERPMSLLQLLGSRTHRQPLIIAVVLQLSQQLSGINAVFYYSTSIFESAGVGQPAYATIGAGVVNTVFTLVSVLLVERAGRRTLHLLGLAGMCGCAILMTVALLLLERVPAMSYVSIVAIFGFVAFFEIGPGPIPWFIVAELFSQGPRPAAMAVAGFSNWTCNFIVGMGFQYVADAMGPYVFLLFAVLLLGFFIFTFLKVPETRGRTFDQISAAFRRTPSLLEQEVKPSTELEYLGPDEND
Assay: co-IP; 200 µL of 1 µg/µL 3T3-L1 lysate, precleared with Protein A/G agarose, rocked with 2 µg Glut4-agarose antibody overnight at 4 °C; western blot for sortilin and Glut4; control cells and cells over-expressing Sort^17b (48 h)

“sortilin variant with included exon 17b (Sort^17b) (mouse)” was tested, and the binding was “binds”.
